Publication PMC4784730
These are yes or no findings as the source states them, for the method shown. Binding seen in cells or lysates may run through a third protein. Some entries that bind do so weakly or less than the wild type.

Chains of the proteins cited; added tags and fusions are not shown.
UniProt Q0VGT2: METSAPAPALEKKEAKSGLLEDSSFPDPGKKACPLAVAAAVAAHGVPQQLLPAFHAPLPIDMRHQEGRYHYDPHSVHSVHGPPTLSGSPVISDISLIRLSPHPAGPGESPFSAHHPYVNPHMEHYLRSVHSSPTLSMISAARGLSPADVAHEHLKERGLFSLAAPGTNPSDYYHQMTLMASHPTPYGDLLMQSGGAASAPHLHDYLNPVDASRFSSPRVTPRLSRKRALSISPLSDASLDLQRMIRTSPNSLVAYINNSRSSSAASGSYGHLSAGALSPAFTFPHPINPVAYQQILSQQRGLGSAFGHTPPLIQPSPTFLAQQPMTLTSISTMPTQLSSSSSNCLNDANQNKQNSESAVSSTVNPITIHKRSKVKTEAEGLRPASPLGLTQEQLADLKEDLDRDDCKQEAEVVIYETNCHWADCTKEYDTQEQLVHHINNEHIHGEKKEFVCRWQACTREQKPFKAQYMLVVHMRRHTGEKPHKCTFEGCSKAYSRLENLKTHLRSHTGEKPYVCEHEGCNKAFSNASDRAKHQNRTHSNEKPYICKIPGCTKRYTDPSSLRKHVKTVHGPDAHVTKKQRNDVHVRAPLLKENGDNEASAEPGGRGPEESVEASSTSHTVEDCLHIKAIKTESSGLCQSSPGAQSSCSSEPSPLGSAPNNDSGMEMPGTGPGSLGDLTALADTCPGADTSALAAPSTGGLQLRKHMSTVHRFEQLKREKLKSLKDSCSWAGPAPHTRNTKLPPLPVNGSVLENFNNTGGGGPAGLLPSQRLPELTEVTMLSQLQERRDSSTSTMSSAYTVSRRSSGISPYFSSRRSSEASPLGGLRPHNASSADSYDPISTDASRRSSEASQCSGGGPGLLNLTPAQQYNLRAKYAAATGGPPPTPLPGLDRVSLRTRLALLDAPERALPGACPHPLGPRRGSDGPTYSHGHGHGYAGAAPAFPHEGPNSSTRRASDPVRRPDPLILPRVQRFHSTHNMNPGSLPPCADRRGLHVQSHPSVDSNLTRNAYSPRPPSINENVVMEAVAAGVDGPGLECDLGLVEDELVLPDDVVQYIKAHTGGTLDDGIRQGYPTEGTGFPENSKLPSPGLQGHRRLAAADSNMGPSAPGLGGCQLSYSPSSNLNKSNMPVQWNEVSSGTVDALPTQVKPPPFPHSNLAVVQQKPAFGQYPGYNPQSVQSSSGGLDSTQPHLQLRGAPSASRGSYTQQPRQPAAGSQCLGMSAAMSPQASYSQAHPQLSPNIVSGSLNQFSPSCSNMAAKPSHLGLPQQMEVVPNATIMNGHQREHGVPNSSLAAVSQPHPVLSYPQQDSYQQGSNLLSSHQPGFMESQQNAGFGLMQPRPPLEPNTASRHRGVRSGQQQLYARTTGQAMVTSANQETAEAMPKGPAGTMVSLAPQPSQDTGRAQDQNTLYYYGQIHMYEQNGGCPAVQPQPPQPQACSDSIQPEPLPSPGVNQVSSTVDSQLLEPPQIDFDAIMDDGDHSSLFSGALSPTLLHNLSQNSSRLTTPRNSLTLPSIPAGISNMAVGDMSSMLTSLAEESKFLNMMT
UniProt Q61602: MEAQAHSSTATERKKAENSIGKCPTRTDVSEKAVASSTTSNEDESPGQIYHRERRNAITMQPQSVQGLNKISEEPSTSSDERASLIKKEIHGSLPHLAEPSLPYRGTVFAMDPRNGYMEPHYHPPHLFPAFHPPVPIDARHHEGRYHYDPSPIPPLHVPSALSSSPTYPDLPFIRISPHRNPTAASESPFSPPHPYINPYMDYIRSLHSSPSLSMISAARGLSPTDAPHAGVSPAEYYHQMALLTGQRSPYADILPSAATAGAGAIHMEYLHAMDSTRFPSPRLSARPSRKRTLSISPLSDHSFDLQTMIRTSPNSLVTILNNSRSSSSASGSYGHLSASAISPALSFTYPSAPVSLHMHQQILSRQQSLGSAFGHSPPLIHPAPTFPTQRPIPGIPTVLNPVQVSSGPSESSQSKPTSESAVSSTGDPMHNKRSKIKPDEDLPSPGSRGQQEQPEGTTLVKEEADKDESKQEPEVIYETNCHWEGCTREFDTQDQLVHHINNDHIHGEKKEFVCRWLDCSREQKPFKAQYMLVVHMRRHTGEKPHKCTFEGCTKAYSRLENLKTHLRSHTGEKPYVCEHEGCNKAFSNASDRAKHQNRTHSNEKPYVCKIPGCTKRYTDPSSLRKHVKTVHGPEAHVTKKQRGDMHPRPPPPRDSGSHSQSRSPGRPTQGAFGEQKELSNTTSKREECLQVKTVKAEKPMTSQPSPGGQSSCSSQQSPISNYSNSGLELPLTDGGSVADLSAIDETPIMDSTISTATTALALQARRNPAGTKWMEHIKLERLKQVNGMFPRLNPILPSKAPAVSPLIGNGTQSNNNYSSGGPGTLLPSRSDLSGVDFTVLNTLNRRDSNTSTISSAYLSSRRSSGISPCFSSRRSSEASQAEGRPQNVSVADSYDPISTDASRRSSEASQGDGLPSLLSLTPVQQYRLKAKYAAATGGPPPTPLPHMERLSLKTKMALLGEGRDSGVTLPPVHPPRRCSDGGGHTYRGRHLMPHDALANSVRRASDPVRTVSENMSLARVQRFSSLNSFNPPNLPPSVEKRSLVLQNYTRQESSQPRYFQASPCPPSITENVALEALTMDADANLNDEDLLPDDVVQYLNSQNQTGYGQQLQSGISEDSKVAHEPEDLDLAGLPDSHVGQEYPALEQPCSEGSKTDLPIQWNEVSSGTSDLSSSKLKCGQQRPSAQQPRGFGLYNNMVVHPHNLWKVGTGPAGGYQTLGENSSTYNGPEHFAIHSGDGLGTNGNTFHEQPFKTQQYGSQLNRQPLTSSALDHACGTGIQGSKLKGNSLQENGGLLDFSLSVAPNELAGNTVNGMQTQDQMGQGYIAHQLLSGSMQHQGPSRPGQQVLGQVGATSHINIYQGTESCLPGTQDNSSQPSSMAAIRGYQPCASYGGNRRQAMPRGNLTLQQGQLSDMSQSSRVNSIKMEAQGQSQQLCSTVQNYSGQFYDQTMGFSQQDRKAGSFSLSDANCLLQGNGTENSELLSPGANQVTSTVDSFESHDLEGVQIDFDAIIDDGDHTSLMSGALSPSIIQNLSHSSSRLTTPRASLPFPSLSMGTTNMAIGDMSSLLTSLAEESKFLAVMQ
UniProt Q80U70: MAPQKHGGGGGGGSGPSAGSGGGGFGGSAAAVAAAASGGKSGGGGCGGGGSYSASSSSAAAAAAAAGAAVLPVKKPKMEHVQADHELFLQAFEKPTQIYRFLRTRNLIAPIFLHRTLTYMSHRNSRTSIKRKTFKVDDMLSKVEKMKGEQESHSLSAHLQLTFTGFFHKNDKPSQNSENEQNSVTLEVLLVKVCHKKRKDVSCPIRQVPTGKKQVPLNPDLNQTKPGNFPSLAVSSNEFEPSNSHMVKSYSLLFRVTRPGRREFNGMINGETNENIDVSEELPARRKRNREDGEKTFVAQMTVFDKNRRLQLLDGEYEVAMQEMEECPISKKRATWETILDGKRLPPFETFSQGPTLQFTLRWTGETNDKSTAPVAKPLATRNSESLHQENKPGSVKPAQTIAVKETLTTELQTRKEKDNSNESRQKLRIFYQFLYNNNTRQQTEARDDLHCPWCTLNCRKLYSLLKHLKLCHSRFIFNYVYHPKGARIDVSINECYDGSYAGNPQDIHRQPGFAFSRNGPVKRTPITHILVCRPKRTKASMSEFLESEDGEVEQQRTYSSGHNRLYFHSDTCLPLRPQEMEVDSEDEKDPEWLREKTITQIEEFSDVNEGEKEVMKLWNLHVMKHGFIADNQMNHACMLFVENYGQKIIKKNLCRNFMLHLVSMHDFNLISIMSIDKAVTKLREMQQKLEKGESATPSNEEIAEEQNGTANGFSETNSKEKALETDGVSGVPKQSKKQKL
UniProt P97496: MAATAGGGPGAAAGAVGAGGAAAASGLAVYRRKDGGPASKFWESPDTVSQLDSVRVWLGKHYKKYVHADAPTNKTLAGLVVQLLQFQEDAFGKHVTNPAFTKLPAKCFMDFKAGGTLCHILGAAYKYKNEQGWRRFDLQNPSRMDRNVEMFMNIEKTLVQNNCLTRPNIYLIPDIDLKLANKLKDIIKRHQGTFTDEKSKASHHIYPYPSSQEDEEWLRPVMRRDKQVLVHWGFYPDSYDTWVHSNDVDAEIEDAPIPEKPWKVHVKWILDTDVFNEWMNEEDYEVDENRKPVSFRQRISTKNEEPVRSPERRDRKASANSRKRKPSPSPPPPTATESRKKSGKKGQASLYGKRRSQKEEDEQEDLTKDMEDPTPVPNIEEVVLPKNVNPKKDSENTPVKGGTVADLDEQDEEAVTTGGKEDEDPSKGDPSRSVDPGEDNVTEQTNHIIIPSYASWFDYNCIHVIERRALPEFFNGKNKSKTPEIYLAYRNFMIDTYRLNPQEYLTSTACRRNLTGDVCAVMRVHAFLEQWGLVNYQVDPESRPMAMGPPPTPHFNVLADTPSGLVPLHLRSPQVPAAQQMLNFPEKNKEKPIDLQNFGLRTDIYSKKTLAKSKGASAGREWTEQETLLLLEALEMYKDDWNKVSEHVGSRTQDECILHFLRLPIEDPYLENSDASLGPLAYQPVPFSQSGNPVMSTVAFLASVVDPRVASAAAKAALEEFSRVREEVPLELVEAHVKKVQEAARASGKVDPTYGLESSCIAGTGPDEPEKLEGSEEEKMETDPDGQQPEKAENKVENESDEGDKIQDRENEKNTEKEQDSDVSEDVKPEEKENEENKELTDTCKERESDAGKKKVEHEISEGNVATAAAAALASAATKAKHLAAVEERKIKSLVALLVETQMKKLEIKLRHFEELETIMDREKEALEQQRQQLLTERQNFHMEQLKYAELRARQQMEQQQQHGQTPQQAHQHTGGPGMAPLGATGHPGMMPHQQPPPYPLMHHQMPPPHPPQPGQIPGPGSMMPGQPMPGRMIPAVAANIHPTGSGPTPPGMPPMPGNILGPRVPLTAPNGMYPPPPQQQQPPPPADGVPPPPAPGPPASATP
UniProt Q61188: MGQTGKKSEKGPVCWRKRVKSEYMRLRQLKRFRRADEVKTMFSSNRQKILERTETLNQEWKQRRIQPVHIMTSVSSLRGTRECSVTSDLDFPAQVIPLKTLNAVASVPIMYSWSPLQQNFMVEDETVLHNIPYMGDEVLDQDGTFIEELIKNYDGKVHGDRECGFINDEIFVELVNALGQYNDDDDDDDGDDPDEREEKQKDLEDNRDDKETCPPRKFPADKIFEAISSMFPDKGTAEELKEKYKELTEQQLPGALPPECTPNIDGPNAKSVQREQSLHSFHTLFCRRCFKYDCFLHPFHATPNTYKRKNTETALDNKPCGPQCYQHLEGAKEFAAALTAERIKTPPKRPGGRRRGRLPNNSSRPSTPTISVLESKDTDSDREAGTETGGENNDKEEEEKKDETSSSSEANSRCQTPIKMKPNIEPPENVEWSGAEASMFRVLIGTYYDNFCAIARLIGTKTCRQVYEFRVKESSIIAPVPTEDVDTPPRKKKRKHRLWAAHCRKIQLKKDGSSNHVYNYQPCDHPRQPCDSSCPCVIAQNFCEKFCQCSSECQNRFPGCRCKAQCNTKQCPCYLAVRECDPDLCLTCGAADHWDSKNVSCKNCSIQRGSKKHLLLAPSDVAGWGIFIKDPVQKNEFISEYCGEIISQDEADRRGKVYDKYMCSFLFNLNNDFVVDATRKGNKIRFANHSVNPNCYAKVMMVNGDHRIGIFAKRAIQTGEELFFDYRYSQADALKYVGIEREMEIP

Columns and labels:
[1] = biological target: Gli2 (mouse (endogenous in E11.5 limb buds)) (UniProt Q0VGT2); assay: co-IP; immunoprecipitation of endogenous proteins from lysates of developing limbs (stage not stated), western blot; preclear beads as negative control
[2] = biological target: Gli3 (mouse (endogenous in limb buds)) (UniProt Q61602); assay: as above
[3] = biological target: Gli2 (mouse (endogenous in E11.5 limb buds)) (UniProt Q0VGT2); assay: co-IP; reciprocal immunoprecipitation of endogenous proteins from E11.5 control limb bud lysates, western blot
[4] = biological target: Gli3FL (mouse (endogenous in E11.5 limb buds)) (UniProt Q61602); assay: as above

| binding [1] | binding [2] | binding [3] | binding [4] | Substance |
| --- | --- | --- | --- | --- |
| binds | binds | – | – | Suz12 (from UniProt Q80U70 1-741) |
| – | – | binds | binds | Srg3/mBaf155 (from UniProt P97496 1-1104) |
| binds | binds | – | – | Ezh2 (from UniProt Q61188 1-746) |
